# Reference: the supplement of paper PMC8728848
# The list shows a part of the results.
# Tests used:
# Assay in all cases: glycan array binding signal (z-score within array); higher = stronger binding
# Conditions in all cases: glycan notation: IUPAC condensed, linker removed
# [1] = target: Neu5Ac(a2-6)Gal(b1-4)GlcNAc(b1-3)Gal(b1-4)GlcNAc(b1-6)[Gal(b1-3)]GalNAc
# In short: (§1)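 From the Consortium for Functional Glycomics database, 3228 arrays were curated, keeping only those whose protein sequence was available. Binding is given as a within-array Z-score averaged across arrays sharing a protein sequence and across linkers. Negative Z-scores can be read as non-binding.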
# [2] = target: Neu5Ac(a2-6)Gal(b1-4)GlcNAc(b1-3)Gal(b1-4)[Fuc(a1-3)]GlcNAc(b1-3)Gal(b1-4)[Fuc(a1-3)]GlcNAc
# In short: as §1
# [3] = target: Neu5Ac(a2-6)Gal(b1-4)GlcNAc(b1-3)GalNAc
# In short: as §1
# [4] = target: Neu5Ac(a2-6)Gal(b1-4)GlcNAc(b1-3)[Neu5Ac(a2-6)Gal(b1-4)GlcNAc(b1-6)]GalNAc
# In short: as §1
# [5] = target: Neu5Ac(a2-6)Gal(b1-4)GlcNAc(b1-6)GalNAc
# In short: as §1
# [6] = target: Neu5Ac(a2-6)Gal(b1-4)GlcNAc(b1-6)[Gal(b1-3)GlcNAc(b1-3)]Gal(b1-4)Glc
# In short: as §1
# [7] = target: Neu5Ac(a2-6)Gal(b1-4)GlcNAc(b1-6)[Gal(b1-3)]GalNAc
# In short: as §1
# [8] = target: Neu5Ac(a2-6)Gal(b1-4)GlcNAc6S
# In short: as §1
# [9] = target: Neu5Ac(a2-6)GalNAc
# In short: as §1
# [10] = target: Neu5Ac(a2-6)GalNAc(b1-4)GlcNAc
# In short: as §1
# [11] = target: Neu5Ac(a2-6)GalNAc(b1-4)GlcNAc6S
# In short: as §1
# [12] = target: Neu5Ac(a2-6)GlcNAc(b1-4)GlcNAc
# In short: as §1
# [13] = target: Neu5Ac(a2-6)GlcNAc(b1-4)GlcNAc(b1-4)GlcNAc
# In short: as §1
# [14] = target: Neu5Ac(a2-8)Neu5Ac
# In short: as §1
# [15] = target: Neu5Ac(a2-8)Neu5Ac(a2-3)Gal(b1-3)GalNAc(b1-4)[Neu5Ac(a2-3)]Gal(b1-4)Glc
# In short: as §1
# [16] = target: Neu5Ac(a2-8)Neu5Ac(a2-3)Gal(b1-3)GalNAc(b1-4)[Neu5Ac(a2-8)Neu5Ac(a2-3)]Gal(b1-4)Glc
# In short: as §1
# [17] = target: Neu5Ac(a2-8)Neu5Ac(a2-3)Gal(b1-4)Glc
# In short: as §1
# [18] = target: Neu5Ac(a2-8)Neu5Ac(a2-3)Gal(b1-4)GlcNAc
# In short: as §1
# [19] = target: Neu5Ac(a2-8)Neu5Ac(a2-3)[Gal(b1-3)GalNAc(b1-4)]Gal(b1-4)Glc
# In short: as §1
# [20] = target: Neu5Ac(a2-8)Neu5Ac(a2-3)[GalNAc(b1-4)]Gal(b1-4)Glc
# In short: as §1
# [21] = target: Neu5Ac(a2-8)Neu5Ac(a2-8)Neu5Ac
# In short: as §1
# [22] = target: Neu5Ac(a2-8)Neu5Ac(a2-8)Neu5Ac(a2-3)Gal(b1-4)Glc
# In short: as §1
# [23] = target: Neu5Ac(a2-8)Neu5Ac(a2-8)Neu5Ac(a2-3)[Gal(b1-3)GalNAc(b1-4)]Gal(b1-4)Glc
# In short: as §1
# [24] = target: Neu5Ac(a2-8)Neu5Ac(a2-8)Neu5Ac(a2-3)[GalNAc(b1-4)]Gal(b1-4)Glc
# In short: as §1
# [25] = target: Neu5Ac(a2-8)Neu5Ac(a2-8)Neu5Ac(a2-8)Neu5Ac(a2-3)[GalNAc(b1-4)]Gal(b1-4)Glc
# In short: as §1
# [26] = target: Neu5Ac(a2-8)Neu5Gc(a2-3)Gal(b1-4)GlcNAc
# In short: as §1
# [27] = target: Neu5Ac(b1-6)GalNAc
# In short: as §1
# [28] = target: Neu5Ac(b2-6)Gal(b1-4)GlcNAc
# In short: as §1
# [29] = target: Neu5Ac(b2-6)GalNAc
# In short: as §1
# [30] = target: Neu5Ac9Ac(a2-3)Gal(b1-3)GlcNAc
# In short: as §1
# [31] = target: Neu5Ac9Ac(a2-3)Gal(b1-4)GlcNAc
# In short: as §1
# [32] = target: Neu5Ac9Ac(a2-6)Gal(b1-4)GlcNAc
# In short: as §1
# [33] = target: Neu5Gc(a2-3)Gal(b1-3)GlcNAc
# In short: as §1
# [34] = target: Neu5Gc(a2-3)Gal(b1-3)[Fuc(a1-4)]GlcNAc
# In short: as §1
# [35] = target: Neu5Gc(a2-3)Gal(b1-4)Glc
# In short: as §1
# [36] = target: Neu5Gc(a2-3)Gal(b1-4)GlcNAc
# In short: as §1
# [37] = target: Neu5Gc(a2-3)Gal(b1-4)GlcNAc(b1-3)Gal(b1-4)GlcNAc(b1-2)Man(a1-3)[Neu5Gc(a2-3)Gal(b1-4)GlcNAc(b1-3)Gal(b1-4)GlcNAc(b1-2)Man(a1-6)]Man(b1-4)GlcNAc(b1-4)GlcNAc
# In short: as §1
# [38] = target: Neu5Gc(a2-3)Gal(b1-4)[Fuc(a1-3)]GlcNAc
# In short: as §1
# [39] = target: Neu5Gc(a2-6)Gal(b1-4)GlcNAc
# In short: as §1
# [40] = target: Neu5Gc(a2-6)GalNAc
# In short: as §1
# [41] = target: Neu5Gc(a2-8)Neu5Ac(a2-3)Gal(b1-4)GlcNAc
# In short: as §1
# [42] = target: Neu5Gc(a2-8)Neu5Gc(a2-3)Gal(b1-4)GlcNAc
# In short: as §1
# [43] = target: Neu5Gc(a2-8)Neu5Gc(a2-3)Gal(b1-4)GlcNAc(b1-3)Gal(b1-4)GlcNAc
# In short: as §1
# [44] = target: Neu5Gc(a2-8)Neu5Gc(a2-6)Gal(b1-4)GlcNAc
# In short: as §1
# [45] = target: Neu5Gc(b2-6)Gal(b1-4)GlcNAc
# In short: as §1
binder,measurement,setting,value
"Endo180d1-D4 (Homo sapiens), Q9UBG0 (protein) MGPGRPAPAPWPRHLLRCVLLLGCLHLGRPGAPGDAALPEPNVFLIFSHGLQGCLEAQGGQVRVTPACNTSLPAQRWKWVSRNRLFNLGTMQCLGTGWPGTNTTASLGMYECDREALNLRWHCRTLGDQLSLLLGARTSNISKPGTLERGDQTRSGQWRIYGSEEDLCALPYHEVYTIQGNSHGKPCTIPFKYDNQWFHGCTSTGREDGHLWCATTQDYGKDERWGFCPIKSNDCETFWDKDQLTDSCYQFNFQSTLSWREAWASCEQQGADLLSITEIHEQTYINGLLTGYSSTLWIGLNDLDTSGGWQWSDNSPLKYLNWESDQPDNPSEENCGVIRTESSGGWQNRDCSIALPYVCKKKPNATAEPTPPDRWANVKVECEPSWQPFQGHCYRLQAEKRSWQESKKACLRGGGDLVSIHSMAELEFITKQIKQEVEELWIGLNDLKLQMNFEWSDGSLVSFTHWHPFEPNNFRDSLEDCVTIWGPEGRWNDSPCNQSLPSICKKAGQLSQGAAEEDHGCRKGWTWHSPSCYWLGEDQVTYSEARRLCTDHGSQLVTITNRFEQAFVSSLIYNWEGEYFWTALQDLNSTGSFFWLSGDEVMYTHWNRDQPGYSRGGCVALATGSAMGLWEVKNCTSFRARYICRQSLGTPVTPELPGPDPTPSLTGSCPQGWASDTKLRYCYKVFSSERLQDKKSWVQAQGACQELGAQLLSLASYEEEHFVANMLNKIFGESEPEIHEQHWFWIGLNRRDPRGGQSWRWSDGVGFSYHNFDRSRHDDDDIRGCAVLDLASLQWVAMQCDTQLDWICKIPRGTDVREPDDSPQGRREWLRFQEAEYKFFEHHSTWAQAQRICTWFQAELTSVHSQAELDFLSHNLQKFSRAQEQHWWIGLHTSESDGRFRWTDGSIINFISWAPGKPRPVGKDKKCVYMTASREDWGDQRCLTALPYICKRSNVTKETQPPDLPTTALGGCPSDWIQFLNKCFQVQGQEPQSRVKWSEAQFSCEQQEAQLVTITNPLEQAFITASLPNVTFDLWIGLHASQRDFQWVEQEPLMYANWAPGEPSGPSPAPSGNKPTSCAVVLHSPSAHFTGRWDDRSCTEETHGFICQKGTDPSLSPSPAALPPAPGTELSYLNGTFRLLQKPLRWHDALLLCESHNASLAYVPDPYTQAFLTQAARGLRTPLWIGLAGEEGSRRYSWVSEEPLNYVGWQDGEPQQPGGCTYVDVDGAWRTTSCDTKLQGAVCGVSSGPPPPRRISYHGSCPQGLADSAWIPFREHCYSFHMELLLGHKEARQRCQRAGGAVLSILDEMENVFVWEHLQSYEGQSRGAWLGMNFNPKGGTLVWQDNTAVNYSNWGPPGLGPSMLSHNSCYWIQSNSGLWRPGACTNITMGVVCKLPRAEQSSFSPSALPENPAALVVVLMAVLLLLALLTAALILYRRRQSIERGAFEGARYSRSSSSPTEATEKNILVSDMEMNEQQE",glycan array binding signal (z-score),[1],-0.864
same,glycan array binding signal (z-score),[2],2.78
same,glycan array binding signal (z-score),[3],-0.491
same,glycan array binding signal (z-score),[4],-0.518
same,glycan array binding signal (z-score),[5],0.474
same,glycan array binding signal (z-score),[6],-0.046
same,glycan array binding signal (z-score),[7],-0.138
same,glycan array binding signal (z-score),[8],0.125
same,glycan array binding signal (z-score),[9],-0.104
same,glycan array binding signal (z-score),[10],-0.431
same,glycan array binding signal (z-score),[11],-0.246
same,glycan array binding signal (z-score),[12],2.23
same,glycan array binding signal (z-score),[13],-0.668
same,glycan array binding signal (z-score),[14],-0.572
same,glycan array binding signal (z-score),[15],0.518
same,glycan array binding signal (z-score),[16],0.548
same,glycan array binding signal (z-score),[17],-0.412
same,glycan array binding signal (z-score),[18],-0.329
same,glycan array binding signal (z-score),[19],0.014
same,glycan array binding signal (z-score),[20],-0.037
same,glycan array binding signal (z-score),[21],0.198
same,glycan array binding signal (z-score),[22],0.246
same,glycan array binding signal (z-score),[23],0.644
same,glycan array binding signal (z-score),[24],0.628
same,glycan array binding signal (z-score),[25],-0.08
same,glycan array binding signal (z-score),[26],-0.753
same,glycan array binding signal (z-score),[27],-0.103
same,glycan array binding signal (z-score),[28],0.631
same,glycan array binding signal (z-score),[29],0.322
same,glycan array binding signal (z-score),[30],-0.884
same,glycan array binding signal (z-score),[31],-0.654
same,glycan array binding signal (z-score),[32],0.028
same,glycan array binding signal (z-score),[33],0.215
same,glycan array binding signal (z-score),[34],-0.098
same,glycan array binding signal (z-score),[35],-0.136
same,glycan array binding signal (z-score),[36],-0.092
same,glycan array binding signal (z-score),[37],0.05
same,glycan array binding signal (z-score),[38],0.147
same,glycan array binding signal (z-score),[39],-0.099
same,glycan array binding signal (z-score),[40],-0.224
same,glycan array binding signal (z-score),[41],-0.032
same,glycan array binding signal (z-score),[42],-0.627
same,glycan array binding signal (z-score),[43],-1.17
same,glycan array binding signal (z-score),[44],-0.595
same,glycan array binding signal (z-score),[45],1.11

# Random excerpt: 3 entries already listed.
binder,measurement,setting,value
"Endo180d1-D4 (Homo sapiens), Q9UBG0 (protein) MGPGRPAPAPWPRHLLRCVLLLGCLHLGRPGAPGDAALPEPNVFLIFSHGLQGCLEAQGGQVRVTPACNTSLPAQRWKWVSRNRLFNLGTMQCLGTGWPGTNTTASLGMYECDREALNLRWHCRTLGDQLSLLLGARTSNISKPGTLERGDQTRSGQWRIYGSEEDLCALPYHEVYTIQGNSHGKPCTIPFKYDNQWFHGCTSTGREDGHLWCATTQDYGKDERWGFCPIKSNDCETFWDKDQLTDSCYQFNFQSTLSWREAWASCEQQGADLLSITEIHEQTYINGLLTGYSSTLWIGLNDLDTSGGWQWSDNSPLKYLNWESDQPDNPSEENCGVIRTESSGGWQNRDCSIALPYVCKKKPNATAEPTPPDRWANVKVECEPSWQPFQGHCYRLQAEKRSWQESKKACLRGGGDLVSIHSMAELEFITKQIKQEVEELWIGLNDLKLQMNFEWSDGSLVSFTHWHPFEPNNFRDSLEDCVTIWGPEGRWNDSPCNQSLPSICKKAGQLSQGAAEEDHGCRKGWTWHSPSCYWLGEDQVTYSEARRLCTDHGSQLVTITNRFEQAFVSSLIYNWEGEYFWTALQDLNSTGSFFWLSGDEVMYTHWNRDQPGYSRGGCVALATGSAMGLWEVKNCTSFRARYICRQSLGTPVTPELPGPDPTPSLTGSCPQGWASDTKLRYCYKVFSSERLQDKKSWVQAQGACQELGAQLLSLASYEEEHFVANMLNKIFGESEPEIHEQHWFWIGLNRRDPRGGQSWRWSDGVGFSYHNFDRSRHDDDDIRGCAVLDLASLQWVAMQCDTQLDWICKIPRGTDVREPDDSPQGRREWLRFQEAEYKFFEHHSTWAQAQRICTWFQAELTSVHSQAELDFLSHNLQKFSRAQEQHWWIGLHTSESDGRFRWTDGSIINFISWAPGKPRPVGKDKKCVYMTASREDWGDQRCLTALPYICKRSNVTKETQPPDLPTTALGGCPSDWIQFLNKCFQVQGQEPQSRVKWSEAQFSCEQQEAQLVTITNPLEQAFITASLPNVTFDLWIGLHASQRDFQWVEQEPLMYANWAPGEPSGPSPAPSGNKPTSCAVVLHSPSAHFTGRWDDRSCTEETHGFICQKGTDPSLSPSPAALPPAPGTELSYLNGTFRLLQKPLRWHDALLLCESHNASLAYVPDPYTQAFLTQAARGLRTPLWIGLAGEEGSRRYSWVSEEPLNYVGWQDGEPQQPGGCTYVDVDGAWRTTSCDTKLQGAVCGVSSGPPPPRRISYHGSCPQGLADSAWIPFREHCYSFHMELLLGHKEARQRCQRAGGAVLSILDEMENVFVWEHLQSYEGQSRGAWLGMNFNPKGGTLVWQDNTAVNYSNWGPPGLGPSMLSHNSCYWIQSNSGLWRPGACTNITMGVVCKLPRAEQSSFSPSALPENPAALVVVLMAVLLLLALLTAALILYRRRQSIERGAFEGARYSRSSSSPTEATEKNILVSDMEMNEQQE",glycan array binding signal (z-score),[19],0.014
same,glycan array binding signal (z-score),[32],0.028
same,glycan array binding signal (z-score),[20],-0.037
